Publication PMC10011478
Read-outs that look alike come from different tables or passages of the source. Results are given in words; binding and its absence hold for the method and conditions named. In cells and extracts the contact can be indirect. Some entries that bind do so weakly or less than the wild type. For some of these results: Sequences can lack the tags named with a protein.

Chains of the proteins cited; added tags and fusions are not shown.
UniProt P63026: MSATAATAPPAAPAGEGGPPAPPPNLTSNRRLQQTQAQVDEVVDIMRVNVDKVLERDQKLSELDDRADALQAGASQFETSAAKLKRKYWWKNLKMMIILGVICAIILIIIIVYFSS
UniProt P60881: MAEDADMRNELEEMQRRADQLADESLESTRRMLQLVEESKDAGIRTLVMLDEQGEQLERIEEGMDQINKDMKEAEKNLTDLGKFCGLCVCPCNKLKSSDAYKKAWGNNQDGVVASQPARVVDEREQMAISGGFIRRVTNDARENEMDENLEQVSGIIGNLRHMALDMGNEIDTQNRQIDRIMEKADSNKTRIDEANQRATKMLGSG

Experiments:
MBP-CeCav (C. elegans) [1] = molecular target: T1, MBP-CeCav (C. elegans) (UniProt Q94051)
T1 sequence: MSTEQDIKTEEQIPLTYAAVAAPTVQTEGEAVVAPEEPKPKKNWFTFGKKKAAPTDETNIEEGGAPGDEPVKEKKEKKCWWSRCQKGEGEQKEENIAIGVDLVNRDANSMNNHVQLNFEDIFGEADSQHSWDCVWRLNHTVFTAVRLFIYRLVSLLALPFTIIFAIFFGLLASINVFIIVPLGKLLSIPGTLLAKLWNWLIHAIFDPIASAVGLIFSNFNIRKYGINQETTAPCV

[2] = molecular target: StrepTag-VAMP-2 (Bos taurus) (UniProt P63026)
MBP-CeCav (C. elegans) [3] = molecular target: T1, MBP-CeCav (C. elegans); remark: listed apart in the source

binding (MBP-CeCav (C. elegans) [1])	binding [2]	binding (MBP-CeCav (C. elegans) [3])	Substance
binds	binds		CBP-SNAP-25 (from UniProt P60881 1-206)
		no binding	Munc-18a-FLAG (from UniProt P61765 1-594)
no binding			StrepTag-VAMP-2 (from UniProt P63026 1-116)
